Experimental data as given in the supplement of paper PMC10338343.
± gives the standard deviation. The list shows a part of the results, in another mix than the full data. Many entries were measured with a wide error.

test system: MIWI (PIWIL1) piRISC loaded with piRNA #2 (30 nt); test: pre-steady-state target cleavage rate (min^-1); MIWI and MILI are mouse PIWI proteins and EfPiwi is from a freshwater sponge; tags in brackets are library labels; higher = faster piRNA-guided slicing of the target; details: guide: piRNA #2 5'p-UUAGGUAACCCAGUAGAUCCAGAGGAAUUC; auxiliary factor: 500 nM mouse GTSF1
Summary of the method: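 Active affinity-purified piRISC carrying one synthetic guide (1 nM) was mixed with a transcribed, DNA-blocked target RNA library […] in HEPES–potassium acetate buffer at 33 °C for 0–8 or 0–960 min, with or without 500 nM GTSF1 partner protein. Uncleaved targets were then sequenced and normalised to depth and to weakly complementary targets. Three trials were pooled, and k3 was capped at 0.0001 min^-1. A burst-and-steady-state fit was applied to obtain the pre-steady-state cleavage rate.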
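Note: 1 nM active piRISC with 0.1 nM target library at 33 °C single turnover.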

Sequence	pre-steady-state target cleavage rate
CUUAAGGAGACCUAGUACUGGGUUACGUUA	0.000371 ± 0.032
CUUAAGGAGACGAUCUACUCGGUUACCUAA	0.000755 ± 0.011
CUUAAGGAGACCAUCUACUGGGUACCUAA	0.00193 ± 0.0049
CAAUUCCUCUGGAUCUUCUGGGUUACCUAA	0.49 ± 0.065
CUUAAGGAGUGGAUGUACUGGGUUACCAAA	0.00658 ± 0.012
GAAUUCCUCUUGGAUCUACUGGGUUACCUAA	0.402 ± 0.042
CUUAAGGAGAGGAUCUACUAGGGUUACCUAA	0.000744 ± 0.013
CUUAAGGAGACCAUCUACUGGGUAACCUUA	0.000623 ± 0.011
CUUUUCCUCUGGAUCUACUCCCUUACCUAA	0.00127 ± 0.0081
CUUAAGGAGACCAUCUACUGGGUUACCAUAA	0.00272 ± 0.003
CAAUUCCUCUCCUUCUACUGGGUUACCUAA	0.613 ± 0.058
CUUAAGGAGACCAUCUACUGGGUUACCUAU [g2:g18:cont:t1U]	0.00309 ± 0.0058
GAAUUCCUCUGGAUUCUACUGGGUUACCUAA	0.224 ± 0.036
CUUAAGGUCUGGAUCUACUGGCUAACCUAA	0.0066 ± 0.0075
CAAUUCCUCCGGAUCUACUGGGUUACCUAA	0.677 ± 0.096
CUUAAGGUCUGGAUCUUGUGGGUUACCUAA	0.00238 ± 0.0075
CUUAAGGAGACCUAGAACUGGGUUACUUAA	0.00028 ± 0.034
CUUAAGGAGACCAUCUACUGCGUUACCUAA	0.00259 ± 0.0034
CUAAUCCUCUGGAUCUACUGGGUUACGUAA	0.66 ± 0.052
CUUAAGGUCUGGAUCUACUGGAGUUACCUAA	0.000263 ± 0.023
CUUAAGGAGACGAUCUACUGGGUUACUAA	0.000188 ± 0.02
CUUAACCUCUGGAUCUACAUGGGUUACCUAA	0.00095 ± 0.0092
CUUAAGGAGACCUAGAUGUAGGGUUACCUAA	0.000438 ± 0.019

Shown as labelled records: part of the list above.
GAAUUCCUCUUGGAUCUACUGGGUUACCUAA
  pre-steady-state target cleavage rate: 0.402 ± 0.042
CUUAAGGAGAGGAUCUACUAGGGUUACCUAA
  pre-steady-state target cleavage rate: 0.000744 ± 0.013

Single values from the entries so far.
For pre-steady-state target cleavage rate, CAAUUCCUCCGGAUCUACUGGGUUACCUAA reads 0.677 ± 0.096
For pre-steady-state target cleavage rate, CUUAAGGUCUGGAUCUACUGGAGUUACCUAA reads 0.000263 ± 0.023
For pre-steady-state target cleavage rate, CUUAAGGAGACGAUCUACUGGGUUACUAA reads 0.000188 ± 0.02

Next entries follow.

Sequence	pre-steady-state target cleavage rate
CUUAAGGAGACCUUCUACUGCCUUACCUAA	0.00122 ± 0.007
CUUAAGGAGACCUUCUACUGGGUAACCUAA	0.00115 ± 0.0059
CUUAAGGAGUGGAUCUACUGGGUUAGCAAA	0.000657 ± 0.023
GAAUUCCUCUGGAUCUAGUGGGAUACCUAA	0.0616 ± 0.011
CUUAAGGAGACCUUCUACUGGCAUACCUAA	0.00199 ± 0.0044
CUUAAGGAGUGGAUCUACUGCCUUACCUAA	0.000546 ± 0.015
CUUAAGGAGACCUUCUACUGGAUUACCUAA	0.000468 ± 0.008
CUUUUCCUCUGGAUCUACUGCCUUACCUAA	0.0739 ± 0.012
CUUAAGGAGACCUUCUACUGGGUUACCAA	0.00153 ± 0.0094
CUUAAGGAGACCUAGAUGUGGGUUACAUAA	0.000418 ± 0.016
CUUAAGGAGACCUAGAUCUGGUUACCUAA	0.000346 ± 0.01
CUUAAGGAGACCUAGAUGUGAGGUUACCUAA	0.000926 ± 0.0097
CUUAAGGAGACCUAGUUCUGGGUUACCUAA	0.000998 ± 0.0074
CUUAAGGAGACCAUCUACUGGGUUACCUA	0.00195 ± 0.0045
CUUAAGGAGACCUAGAUCUGGGUUACCUAAA	0.00119 ± 0.005
CUUAAGGACUGGAUCUACAGCGUUACCUAA	0.00714 ± 0.0051
CUUAAGGAGACCAACAACUGGGUUACCUAA	0.00107 ± 0.014
CUUAAGGAGAGGAUCAACUGCGUUACCUAA	0.00258 ± 0.0033
CUUUUCCUCUGGCAUCUACUGGGUUACCUAA	0.331 ± 0.089
CUUAAGGAGACCUUCUACUGGGUUACCUAG [g2:g17:cont:t1G]	0.00304 ± 0.0043
CUUAAGGAGACCAUGCUACUGGGUUACCUAA	0.0021 ± 0.0066
CUUAAGGAGACCUAGAUGAGGCAUACCUAA	0.000409 ± 0.014
CUUAAGGAGACUAUCUACUGGGUUACCUAA	0.00326 ± 0.0033

Sequence	pre-steady-state target cleavage rate
CUUAAGGAGAGGUUCUACUGCGUUACCUAA	0.00303 ± 0.0038
CUUAAGGAGACCUAGAUCUGGGUAUACCUAA	0.00127 ± 0.0053
CAAUUCCUCUGGAUCUACUGGGUUACGUAA	0.598 ± 0.065
CAAUUCCUCUGGAUCUACUGGGUAUGGAUA [g8:g29:cont:t1A]	0.000567 ± 0.013
CUAUACCUCUGGUUCUACUGGGUUACCUAA	0.696 ± 0.053
CUUAAGGAGACGAUCUACUCGGUUACGUAA	0.000323 ± 0.015
CUUAUCCUCUGGAUCGUACUGGGUUACCUAA	0.00456 ± 0.0046
CUUAAGGAGAGGAGUCUACUGGGUUACCUAA	0.00237 ± 0.0053
CUUAAGGAGACCUUCUACUGCGAUACCUAA	0.00339 ± 0.0047
CUUAAGGAGACCUACUACUGGGUUACCGUAA	0.00122 ± 0.0075
CUUAAGGAGUGGAUCUACUGGGUUAGCUUA	0.00234 ± 0.0056
CUUAAGCUCUGGAUCUACUGGGUUACCUAG [g2:g24:cont:t1G]	0.0755 ± 0.013
CUUAAGGAGACGAUGUACUGCGUUACCUAA	0.00164 ± 0.0039
CUUUUCCUCUGGAUCUACUGCGGUUACCUAA	0.00259 ± 0.0036
CUUAAGGAGUGGAUCUACUGGGUUACCGAA	0.0437 ± 0.018
CUUAAGGACUGCAUCUACUGCGUUACCUAA	0.00295 ± 0.013
CUUAAGGAGUGGAUCUACUGCGUUUCCUAA	0.00293 ± 0.0038
CUUAAGGAGACCUAGAUCUGGGUUACCGUAA	0.000672 ± 0.013
CAAUUCCUCUGGAUCUAGUCGGUUACCUAA	0.00448 ± 0.0049
CUUAAGGAGACCUAGUAGUGGCUUACCUAA	0.000192 ± 0.03
CUUAAGGAGAGGAUCUACUGGGGUUACCUAA	0.000198 ± 0.018
CUUAAGGAGACGAACUACUGGGUUACCAAA	0.000189 ± 0.035
CUUAUCCUCUGGAUCUACUGGCAAACCUAA	0.00254 ± 0.0042

Sequence	pre-steady-state target cleavage rate
CUAUUCCUCUGGAUCUACUGGGAAUGGAUA [g9:g28:cont:t1A]	0.0013 ± 0.008
GAAUUCCUCUCGAUCUACUGGGUUACGUAA	0.581 ± 0.067
CUUAAGGAGACCAACUACAGGGUUACCUAA	0.00197 ± 0.0057
CUUAAGGAGACCUACUACUGGGAUACGUAA	0.000185 ± 0.019
CUUAAGGAGACCUUCUACUGGGUAACGUAA	0.000957 ± 0.0078
CUUAAGGAGACCUAGAUGACGGUUACCUAG [g2:g10:cont:t1G]	0.000226 ± 0.026
CUUAAGGAGACCUACAACUGGGAUACCUAA	0.000111 ± 0.06
CUUAAGGUCUGGAUCUAUGGGUUACCUAA	0.00273 ± 0.0042
CUUAAGGAGUGGAUCUACAGGGAUACCUAA	0.00207 ± 0.0053
CUUAAGGAGACGAUCUAGUGGGUUAGCUAA	0.000586 ± 0.0092
CUUUUCCUCUCGAUCUACUGGGUUACCUAA	0.602 ± 0.04
CUUUUCCUCUGGAUCUACUGGGUUACAUAA	0.738 ± 0.042
CUUAAGGAGACGAUCAUCUGGGUUACCUAA	0.000698 ± 0.011
CAAUUCCUCAGGAUCUACUGGGUUACCUAA	0.695 ± 0.062
CUUAAGGAGAGGAUCUAUCUGGGUUACCUAA	0.000165 ± 0.026
CUUAAGGAGACCUAGUACUUGGUUACCUAA	0.000376 ± 0.019
CUUAAGGAGACCAUACUACUGGGUUACCUAA	0.00226 ± 0.0044
CUUAAGGAGUGGAUCUACAGGGUUAGCUAA	0.00357 ± 0.0058
CUUAAGGUCUGGAUCUACUGCCAUACCUAA	0.000499 ± 0.017
CUUAAGGAGACCUAGAUCUCGGGUUACCUAA	0.000173 ± 0.032
